The list shows a part of the results.
Target: OsWRKY34 (Oryza sativa, UniProt Q0JBA9 1-250)
Assay: protein-binding microarray (RPBM); PBS, 2% BSA, 51.3 ng/ul salmon testes DNA, 50 uM zinc acetate, 200 nM TF, 25 C, 1 h; high values mean tight binding
Conditions: protein: recombinant; tags: N-terminal polyhistidine and DsRed monomer fusion (pET32a); label: CyDye5-dUTP incorporated in the synthesized complementary strand; 3' TTTTT single-stranded linker to array surface; dsDNA, one strand shown
Procedure, shortened: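 The binding signal is fluorescence intensity per feature, in arbitrary units, read on an Axon 4000B scanner. Polyhistidine- and DsRed-tagged transcription factors (N-terminal fusions) from E. coli BL21-CodonPlus were purified on Ni–NTA and applied at 200 nM for 1 h at 25 °C to a double-stranded, BSA-blocked custom Agilent array in buffer with 50 µM zinc acetate.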

Protein sequences, listed by entry. Tags and fused reporters are not part of them.
UniProt Q0JBA9, entry or part of it: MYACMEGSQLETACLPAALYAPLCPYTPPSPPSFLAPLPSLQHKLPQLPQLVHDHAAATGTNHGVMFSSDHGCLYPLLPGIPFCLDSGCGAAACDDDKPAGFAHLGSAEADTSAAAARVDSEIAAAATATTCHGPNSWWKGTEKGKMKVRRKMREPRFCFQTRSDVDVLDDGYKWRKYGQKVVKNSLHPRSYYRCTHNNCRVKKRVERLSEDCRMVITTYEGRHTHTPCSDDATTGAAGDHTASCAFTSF

Sequence | binding signal
CTGGATCACACCTTCTCTTCACCTTTTCTTCTCAAGCCAGCGGAGTCACCTAGTGCAG | 9360 fluorescence intensity (a.u.)
CACTTCCTATCTCAAATACGACTGCTTCGTCGTAACCCTTCGGAGTCACCTAGTGCAG | 8230 fluorescence intensity (a.u.)
GACTACAAAGCCCAGTGCATCACCATTCCTCAGAGTTGTCCGGAGTCACCTAGTGCAG | 8260 fluorescence intensity (a.u.)
GTGTCGTGGTGGAAAGTTCCTTACAAGCGCCGCCTCTATCCGGAGTCACCTAGTGCAG | 8220 fluorescence intensity (a.u.)
ATACCAGTCATTACCTTCAATTTAAATCTATTTTTTTTCTCGGAGTCACCTAGTGCAG | 10200 fluorescence intensity (a.u.)
CCTAACCCCGACGACCCGCGCCCCACGAAACCCCTCCCCTCGGAGTCACCTAGTGCAG | 10800 fluorescence intensity (a.u.)
GACTTACTTTATTGTCTACAGTACTTTAAGCACAACTTTTCGGAGTCACCTAGTGCAG | 8360 fluorescence intensity (a.u.)
CCGCCGTCGCCACAACTCCGCCCGGCCTTCGCGCCAGTCTCGGAGTCACCTAGTGCAG | 9440 fluorescence intensity (a.u.)
TCGATTGAGCTCTTTTTTTTTTCTTTTCTTCTACCTTTCACGGAGTCACCTAGTGCAG | 11600 fluorescence intensity (a.u.)
CTCGACATCCACGTCGCTCGCCACCAACACTACCGACGTCCGGAGTCACCTAGTGCAG | 8240 fluorescence intensity (a.u.)
AGTGGTGTTTGTATTGAAAAAGTAGTGTCTAATACTAGTTCGGAGTCACCTAGTGCAG | 9550 fluorescence intensity (a.u.)
AAAGTTGACTTTTCAGCTTGGGAAAGTAATTCACATGATCCGGAGTCACCTAGTGCAG | 13500 fluorescence intensity (a.u.)
CCTTCACCGCCTCCGCCTCTTTGACCTCCTCCTCCGCCATCGGAGTCACCTAGTGCAG | 10400 fluorescence intensity (a.u.)
CATCCGATTCCTATGTATTTCTTGCGGTCTAATCAAACGACGGAGTCACCTAGTGCAG | 10200 fluorescence intensity (a.u.)
GAGCGTGGCGGAGACCGGTGGGGAAGGAGGTGGGGCGGAGCGGAGTCACCTAGTGCAG | 9880 fluorescence intensity (a.u.)
GTATAGGTTTCTCTGTTTTTTTTTTACTACCTCTATCCCACGGAGTCACCTAGTGCAG | 11800 fluorescence intensity (a.u.)
ATATAGGGGTTGTTTGGTTGATGGTTAAGTTTATCACCTCCGGAGTCACCTAGTGCAG | 10600 fluorescence intensity (a.u.)
CTCCGGTGGGTCGGGTCTGGGCGGGGTGCGCGTGGGGATGCGGAGTCACCTAGTGCAG | 18200 fluorescence intensity (a.u.)
ATATGTGTGGGTTAAGAGAAGGCTGAAAAAAAACTTTATACGGAGTCACCTAGTGCAG | 8320 fluorescence intensity (a.u.)
GCTATTGTACCTACTCTTAATCCCCTCTGATTAATTAATTCGGAGTCACCTAGTGCAG | 8620 fluorescence intensity (a.u.)
GTTTTAGTGGGTTGTTTCGTTGACGTGGTGCTATGACCCGCGGAGTCACCTAGTGCAG | 9160 fluorescence intensity (a.u.)
TTCAGAATATATGCACGCCGAACTGCGTCTTGTTCATTGACGGAGTCACCTAGTGCAG | 8840 fluorescence intensity (a.u.)
CCACCCCATCGCGAGATCTCATCCGTCCATCTCTCTTCCTCGGAGTCACCTAGTGCAG | 8690 fluorescence intensity (a.u.)
